Assay [1] deals with CDK5/GST-p25 (Homo sapiens, UniProt Q00535). Put plainly: Inhibition of CDK5/GST-p25 kinase activity (ELISA with time-resolved fluorescence readout). The settings on record: read-out: CDK5 IC50; class symbols. The protocol: Two recombinant baculoviral constructs were created, one encoding for human CDK5 and the other encoding for human p25 with an amino-terminal glutathione-S-transferase (GST) tag. PCR amplification of full-length CDK5 was performed utilizing human brain cDNA as a template and Pfu Turbo polymerase (Strategene). The PCR product from this reaction was subcloned into the baculoviral expression vector pFASTBAC1 (Gibco/BRL). The final construct, encoding for full-length human CDK5 (base pairs 25-903 of GenBank Accession #NM_004935), is 292 amino acids long with a predicted MW of 33.3 kDa.
For p25, the active truncated form of p35, amino acids 108-307 were PCR-amplified from human fetal brain cDNA (Clontech QUICK-Clone cDNA) using the Advantage 2 PCR system (Clontech). […]
Compounds were tested for their ability to inhibit the kinase activity of recombinant baculoviral CDK5/GST-p25 using an enzyme-linked immunosorbent assay (ELISA) with time-resolved fluorescence (TRF) readout. […] The plate was gently agitated and after a few minutes, the fluorescence of the resulting solution was measured using a Multilabel Reader (Victor2 Model # 1420-018 or Envision Model # 2100). Inhibition data were analyzed using ActivityBase and IC50 curves were generated using XLFit 3.0.5.
(In general: An ELISA detects its analyte on a solid surface through an enzyme-linked reagent.)

Protein sequences, listed by entry. Tags and fused reporters are not part of them. Residues count along the entry.
UniProt Q00535, whole entry: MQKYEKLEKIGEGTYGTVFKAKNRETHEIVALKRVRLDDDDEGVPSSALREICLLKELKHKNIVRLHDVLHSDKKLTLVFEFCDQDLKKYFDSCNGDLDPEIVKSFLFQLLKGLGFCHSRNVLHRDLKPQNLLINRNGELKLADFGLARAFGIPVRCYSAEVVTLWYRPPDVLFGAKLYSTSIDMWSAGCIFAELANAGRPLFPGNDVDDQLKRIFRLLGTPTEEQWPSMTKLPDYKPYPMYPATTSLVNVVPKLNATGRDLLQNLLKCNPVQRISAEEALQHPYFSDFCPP
UniProt P49841, 2-419 limits assumed: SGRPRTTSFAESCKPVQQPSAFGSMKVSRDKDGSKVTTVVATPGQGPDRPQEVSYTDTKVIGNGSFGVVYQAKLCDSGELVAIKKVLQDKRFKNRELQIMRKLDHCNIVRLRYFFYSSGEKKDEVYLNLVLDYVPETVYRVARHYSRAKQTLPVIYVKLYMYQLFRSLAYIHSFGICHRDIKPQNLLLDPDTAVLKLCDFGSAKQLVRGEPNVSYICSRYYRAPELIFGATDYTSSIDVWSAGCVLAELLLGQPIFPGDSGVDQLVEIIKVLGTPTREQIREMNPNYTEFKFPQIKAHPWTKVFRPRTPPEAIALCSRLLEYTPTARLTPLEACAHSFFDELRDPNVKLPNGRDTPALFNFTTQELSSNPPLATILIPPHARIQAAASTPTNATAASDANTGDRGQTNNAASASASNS
UniProt Q15078, 108-307 partner limits assumed: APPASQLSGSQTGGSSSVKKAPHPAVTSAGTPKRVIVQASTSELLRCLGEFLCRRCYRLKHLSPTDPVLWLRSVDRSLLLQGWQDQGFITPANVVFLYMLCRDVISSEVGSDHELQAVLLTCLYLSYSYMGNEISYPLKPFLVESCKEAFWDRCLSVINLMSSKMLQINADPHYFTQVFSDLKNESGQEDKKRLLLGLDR

For assay [2], the target named is His6-GSK-3β (Homo sapiens, UniProt P49841). Kind of assay: Inhibition of His6-GSK-3β kinase activity (ELISA-based format, time-resolved fluorescence readout). The class given is biochemical. The settings on record: read-out: GSK3β IC50; class symbols. The text has this:
Full-length GSK-3β was amplified from a sequence-verified I.M.A.G.E. EST acquired from Research Genetics (Invitrogen, Clone ID# CSODB003YJ02). The final sequence-verified cDNA contained the coding region for a NH2-terminal tag, which encoded for 6 histidines and then eight vector-encoded amino acids prior to the start of GSK3β, which contained by # 43-1342 of Genbank Accession # NM_002093, encoding amino acids #2-419. The predicted molecular weight of the tagged, 435 amino acid, full-length protein is 48.5 kDa. The major structural element of this protein is the kinase domain, which is from amino acids #56-340. Recombinant baculoviral DNA was prepared by transposition in E. coli (BAC-TO-BAC system: Invitrogen) and the virus generated and amplified in Sf21 insect cells. […]
Inhibitory effects of compounds on baculoviral GSK-3β kinase activity were evaluated using an ELISA-based format in a 384-well FluoroNunc Maxisorp plate (Cat # 460372) with a time-resolved fluorescence readout. […] The plate was gently agitated and after a few minutes, the fluorescence of the resulting solution was measured using a Multilabel Reader (Victor2 Model # 1420-018 or Envision Model 2100). Inhibition data were analyzed using ActivityBase and IC50 curves were generated using XLFit 3.0.5.

Each structure is given as a SMILES string. pIC50: −log10 of the molar value. The structures given here were assigned with low confidence; some may be wrong.

On to `O=C1Nc2ccc(F)cc2C1c1ncnc2nn(C3CCCCC3)cc12` (centres unmarked), for which the pIC50 in assay [1] and in assay [2] was 5.52 to 6.52 each time.

These data come from patent US8354414B2, “Substituted bicyclic pyrimidines” (Cephalon, Inc, priority 2006, dated 2013).
